# The campaign covered roughly 400,000 compounds. About 13,000 (3.2%) were called active. The shares of active, inactive and inconclusive entries below differ from those in the screen. Calls come from the whole dose curve; as a rule, active = well fitted cell-killing curve with a large enough effect; inconclusive = small, poorly fitted or top-dose-only effect, or effect the other way; inactive = flat fitted curve, though single readings scatter. A potency beside an inconclusive call is a rough fit, not a confirmed value.
# Assay: qHTS assay for MDR1-selective chemotherapeutics: Primary screen using the drug-selected MDR subline cells KB-V1; note: nearly all actives have a fitted effect of over 60% in size
# Settings: KB-V1 MDR cells viability, CellTiter-Glo, 72 h; series mostly up to 46.1 µM
# Procedure, shortened: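 Cytotoxicity toward P-gp-expressing KB-V1 cells was determined as loss of CellTiter-Glo luminescence after 72 h at 37 degrees C. Compounds were tested in quantitative HTS format across a concentration range, with curves fitted to normalized data.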
# Potency is the fitted concentration of half-maximal effect.
row,SMILES,Potency
1,Cc1[nH]n(-c2ccccc2)c(=O)c1/C=N\NC(=O)C1COc2ccccc2O1 (centres undefined),"inconclusive: 7.31 µM [cytotoxic, partial curve, poor fit]"
2,COCCn1c(=O)[nH]c2cc(C(=O)N3CCN(c4cc(C)ccc4C)CC3)ccc2c1=O,"inconclusive: 18.4 µM [cytotoxic, single point]"
3,Cc1csc2nc(COC(=O)CNC(=O)c3ccc(F)cc3)cc(=O)n12,inactive
4,O=C(COC(=O)[C@@H]1CCCN1S(=O)(=O)c1ccccc1F)NCc1ccc2c(c1)OCO2,"inconclusive: 1.64 µM [rising, full curve, poor fit]"
5,CC(NC(=O)c1ccccc1)C(=O)OCn1nnc2ccccc2c1=O (centres undefined),inactive
6,Cc1ccc(C(=O)NC(=C(Cl)Cl)S(=O)(=O)c2ccccc2)cc1,active: 16.4 µM
7,Cc1cc(C(=O)NC2CCCc3c2cnn3-c2ccc(C)c(C)c2)no1 (centres undefined),"inconclusive: 29.1 µM [cytotoxic, single point]"
8,O=S(=O)(CCN1C=CC(C(F)(F)F)=NCC1)c1ccc(Cl)cc1Cl,inactive
9,C=CCNC(=S)N1CCN(CCN=CC2=C(O)CC(c3ccco3)CC2=O)CC1 (centres undefined),"inconclusive: 0.259 µM [rising, full curve, poor fit]"
10,COc1ccc(-c2nc(CS(=O)(=O)CC(=O)NCc3cccc(OC)c3OC)c(C)o2)cc1,inactive
11,COc1ccc2c(c1)CC/C2=N\OC(=O)c1cccc(C)c1,"inconclusive: 29.1 µM [cytotoxic, single point]"
12,Cc1csc(SCC(=O)NCCc2ccc(Cl)cc2Cl)n1,"inconclusive: 16.4 µM [cytotoxic, single point]"
13,C=CCn1nnnc1SCC(=O)Nc1ccc(OC)cc1,"inconclusive: 2.91 µM [cytotoxic, partial curve, poor fit]"
14,COc1cc(NC(=O)c2cccc3c(-c4cnn(C)c4)coc23)cc(OC)c1OC,"inconclusive: 29.1 µM [cytotoxic, single point]"
15,Cc1ccnc(NC(=O)CNC(=O)c2ccccc2Br)c1,inactive
16,Cc1ccc(NC(=O)c2cc(-c3cccc(O)c3)on2)cc1C,inactive
17,C=CCNc1ncnc2c1ncn2[C@H]1CN(Cc2ccco2)C[C@@H](CO)O1,inactive
18,Cn1c(NCC(O)c2ccccc2)nc2c1c(=O)n(Cc1ccc(Cl)cc1)c(=O)n2C (centres undefined),"inconclusive: 16.4 µM [cytotoxic, single point]"
19,CCc1ccc(NCc2cc3ccc(OC)cc3n(CC(=O)Nc3ccccc3C)c2=O)cc1,"inconclusive: 6.51 µM [cytotoxic, full curve]"

# Reference: PubChem BioAssay AID1347076 (National Center for Advancing Translational Sciences (NCATS), 2019)
